B1: TNF-α binder A4A9 (designed binder)
chain: NVSPPRRARVTDATETTITISWYPYYDDCGYYISYFQVDAVPANGQTPIQRTIPDSYSSYTITGLQPGTDYKIYLYTLNDADDGHPYSKPVVIDAST
B2: TNF-α binder R4A8 (designed binder)
chain: NVSPPRRARVTDATETTITISWYPSEDYCGSSIYGFQVDAVPANGQTPIQRTIHGNETSYTITGLQPGTDYKIYLYTLNSAGFCPPYSKPVVIDAST
B3: TNF-α binder R4F7 (designed binder)
chain: NVSPPRRARVTDATETTITISWYPYEYDDCYYYIYYFQVDAVPANGQTPIQRTIPDYESYYTITGLQPGTDYKIYLYTLNSYGFCPPSYKPVVIDAST
B4: TNF-α binder R4G4 (designed binder)
chain: NVSPPRRARVTDATETTITISWEPSEYDCYYSIYYFQVDAVPANGQTPIQRTIHDSYNYYTITGLQPGTDYKIYLYTLNSAGFCPPYSKPVVIDAST
B5: TNF-α binder R3A10 (designed binder)
chain: NVSPPRRARVTDATETTITISWYPYYYYCGYHYSYFQVDAVPANGQTPIQRTIYGYYTYYTITGLQPGTDYKIYLYTLNSSDYCYYSYYPVVIDAST
B6: TNF-α binder R4E9 (designed binder)
chain: NVSPPRRARVTDATETTITISWESYYYDCCYYIYYFQVDAVPANGQTPIQRTIYYPYTSYTITGLQPGTDYKIYLYTLNSYGYGYHYYKPVVIDAST
B7: SEQ ID NO 326 (designed binder)
chain: NVSPPRRARVTDATETTITISWRTKTKTITGFQVDAVPANGQTPIQRTIERNAHGYTITGLQPGTDYKIYLYTLYGLGEASSPVVIDAST
B8: SEQ ID NO 321 (designed binder)
chain: NVSPPRRARVTDATETTITIRWEVAESAFDSFQVDAVPANGQTPIQRTINAATTTYTITGLQPGTDYKIYLYTLNDNARSSPVVIDAST
B9: SEQ ID NO 324 (designed binder)
chain: B8 chain with E23T, A25S, E26G, A28P, S31G, N50H, A52D, T55V
B10: SEQ ID NO 325 (designed binder)
chain: B8 chain with E23T, A25S, E26A, A28E, N50H, A52T
B11: SEQ ID NO 328 (designed binder)
chain: B8 chain with E23K, E26G, S27G, A28T, S81I
B12: 1637102_VGR2D12 (designed binder)
chain: B8 chain with V24R, A25S, E26G, S27G, A28P, F29V, S31G, A52D, T54N, T55I
B13: SEQ ID NO 327 (designed binder)
chain: B8 chain with E23R, E26G, A28E, N50H, L74F
B14: SEQ ID NO 322 (designed binder)
chain: B8 chain with V24R, A25S, E26Q, S27G, A28Q, S31G, A52D, T54N, T55V
B15: SEQ ID NO 331 (designed binder)
chain: NVSPPRCARVTDATETTITIRWGVPEGKVVSFQVDAVPANGQTPIQRTIKPDVRSYTITGLQPGTDYKIYLYTLNNTGGSTYTELTVVIDAST
B16: SEQ ID NO 316 (designed binder)
chain: NVSPPRRARVTDATETTITIRWGAPEDDGGGEVPGFQVDAVPANGQTPIQRTINADVSTYTITGLQPGTDYKIYLYTLNDNARSSPVVIDAST
B17: 1637102_VGR2F04 (designed binder)
chain: B16 chain with G23K, D27Y, D28T, G31A, P34L, V57T
B18: SEQ ID NO 319 (designed binder)
chain: B16 chain with A24Q, E26A, D27Y, G31S, V57I
B19: SEQ ID NO 228 (designed binder)
chain: B16 chain with G23N, A24Q, E26A, D27Y, G31R, E32A, V33I
B20: SEQ ID NO 318 (designed binder)
chain: NVSPPRRARVTDATETTITIRWQQGEEGGGVVPGFQVDAVPANGQTPIQRTINADTSTYTITGLQPGTDYKIYLYTLNDNARSSPVVIDAST
B21: SEQ ID NO 230 (designed binder)
chain: NVSPPRSARVTDATETTITIRWGEPTHNGGTEIPSFQVDAVPANGQTPIKRTINADTHTYTITGLQPGTDYKIYLYTLNDNARSSPVVIDAST
B22: SEQ ID NO 330 (designed binder)
chain: NVSPPRRARVTDATETTITIRWERSQGQFDGFQVDAVPANGQTPIQRTINADTNVYTITGLQPGTDYKIYLYTLTAFGAGDVTSSPVVIDAST
B23: SEQ ID NO 317 (designed binder)
chain: NVSPPRRARVTDATETTITIRWELPIQRSSLIPGFQVDAVPANGQTPIQRTINADVSTYTITGLQPGTDYKIYLYTLNDNARSSPVVIDAST
B24: SEQ ID NO 225 (designed binder)
chain: B23 chain with R7L, E23A, Q27D, R28P, S29G, I32V, G34S, N53H, V56T
B25: 1637102_VGR2C10 (designed binder)
chain: B20 chain with Q23K, Q24L, G25P, E26V, E27S, G28A, G29D, T56I
B26: 1637102_VGR2B05 (designed binder)
chain: NVSPPRRARVTDATETTITIRWKQPKEADSQVLSFQVDAVPANGQTPIQRTINASTNVYTITGLQPGTDYKIYLYTLNDNARSSPVVIDAST
B27: SEQ ID NO 224 (designed binder)
chain: B26 chain with D29E
B28: P2F3 anti-HMGB1 (designed binder)
chain: NVSPPRRARVTDATETTITIRWGVPHSFQVDAVPANGQTPIQRTIKRGVRSYTITGLQPGTDYKIYLYTLNDNARSSPVVIDAST
B29: R2E6 anti-HMGB1 (designed binder)
chain: NVSPPRRARVTDATETTITIRWGVAQSQVARFQVDAVPANGQTPIQRTIKRSVHTYTITGLQPGTDYKIYLYTLNDNARSSPVVIDAST
B30: R2G9 anti-HMGB1 (designed binder)
chain: B29 chain with A25S, Q26E, Q28E, A30I, V53K, T55A
B31: P2C6 anti-HMGB1 (designed binder)
chain: B29 chain with Q26P, A30I, T55A
B32: P2F7 anti-HMGB1 (designed binder)
chain: B29 chain with V24A, A25P, Q26A, Q28E, V29I, A30I, S52T, V53I
B33: R2E5 anti-HMGB1 (designed binder)
chain: B29 chain with R21S, Q26P, Q28E, V29I, A30N, V53K, T55A
B34: P2F5 anti-HMGB1 (designed binder)
chain: B29 chain with A25P, Q26G, Q28P, A30V, S52G, V53A, H54R, T55I
B35: P2F6 anti-HMGB1 (designed binder)
chain: B29 chain with G23T, A25P, Q26A, Q28P, V29I, S52T, V53T, H54R
B36: R2B5 anti-HMGB1 (designed binder)
chain: B29 chain with G23T, Q26E, Q28K, V29I, V53K, T55S
B37: R2F5 anti-HMGB1 (designed binder)
chain: B29 chain with A25S, Q26E, S27G, V29I, A30V, V53K, T55A
B38: R2D4 anti-HMGB1 (designed binder)
chain: B29 chain with R21S, Q26E, Q28E, A30T, V53K, T55A
B39: R2F4 anti-HMGB1 (designed binder)
chain: B29 chain with A25S, Q26P, Q28E, A30V, T55G

Amino acid sequences for entries named in this document (tags omitted). Residues count along the entry.
UniProt P01375, residues 77-233: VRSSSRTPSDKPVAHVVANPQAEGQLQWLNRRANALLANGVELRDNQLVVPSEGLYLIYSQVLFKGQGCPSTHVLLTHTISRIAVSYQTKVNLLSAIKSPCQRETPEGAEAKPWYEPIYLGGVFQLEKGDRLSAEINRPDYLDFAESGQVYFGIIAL
UniProt P35968, residues 20-764: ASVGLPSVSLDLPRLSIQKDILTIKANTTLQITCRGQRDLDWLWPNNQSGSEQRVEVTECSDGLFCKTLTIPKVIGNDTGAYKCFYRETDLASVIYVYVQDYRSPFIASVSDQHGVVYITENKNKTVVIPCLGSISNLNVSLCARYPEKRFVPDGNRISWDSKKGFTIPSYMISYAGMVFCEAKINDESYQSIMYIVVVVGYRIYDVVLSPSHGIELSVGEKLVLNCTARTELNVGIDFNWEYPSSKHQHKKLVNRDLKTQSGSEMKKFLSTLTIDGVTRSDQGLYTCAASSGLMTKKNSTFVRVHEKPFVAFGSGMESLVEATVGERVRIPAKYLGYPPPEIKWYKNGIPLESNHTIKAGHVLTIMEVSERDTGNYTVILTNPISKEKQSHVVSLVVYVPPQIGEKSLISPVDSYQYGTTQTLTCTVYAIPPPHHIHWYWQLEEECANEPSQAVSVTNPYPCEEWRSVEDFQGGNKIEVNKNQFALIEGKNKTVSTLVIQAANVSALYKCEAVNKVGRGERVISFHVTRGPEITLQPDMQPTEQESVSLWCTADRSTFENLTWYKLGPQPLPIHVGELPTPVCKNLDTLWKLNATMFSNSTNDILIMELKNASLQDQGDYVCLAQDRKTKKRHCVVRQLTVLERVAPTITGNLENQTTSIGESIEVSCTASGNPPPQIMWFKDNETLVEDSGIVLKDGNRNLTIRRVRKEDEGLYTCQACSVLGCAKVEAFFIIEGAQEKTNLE
UniProt P09429: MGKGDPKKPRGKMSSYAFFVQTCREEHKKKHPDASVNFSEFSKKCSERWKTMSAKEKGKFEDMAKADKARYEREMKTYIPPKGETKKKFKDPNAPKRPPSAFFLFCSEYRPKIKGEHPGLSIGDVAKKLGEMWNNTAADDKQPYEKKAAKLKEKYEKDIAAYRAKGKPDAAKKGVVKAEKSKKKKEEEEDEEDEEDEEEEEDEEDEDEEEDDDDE

Residue numbers refer to the chain shown, from its start. No constants are given. Whether binding was seen depends on the method and setting. Some results given as binding are weak or reduced against the parent protein; the word gives no strength.

The target in the first assay is T1, TNF-α (UniProt P01375 77-233, biotinylated).
T1 construct: also called TNF-alpha; biotintylated TNF-α soluble protein (R&D Systems)
In words: phage display selection and phage ELISA. (In an ELISA, binding on a coated surface is turned into a signal by an enzyme label.)
Consider B1, for which the binding result is on record as “binds”. The same measure, in the same setting: the same measure for B2: “binds”; for B3: “binds”; for B4: “binds”. In the case of B5, the binding result is listed as “binds”. Still for that read-out and setting: in the case of B6 it was “binds”.

The target in another assay is VEGFR2 (UniProt P35968). Nature of the assay: phage display selection.
Consider B7, for which the binding entry is given as “binds”. On the same count and under the same terms, the same measure for B8: “binds”. On the same count and under the same terms, in the case of B9 it was “binds”. On the same count and under the same terms, in the case of B10 it was “binds”; in that of B11, “binds”; in that of B12, “binds”. With B13, the binding result is given as “binds”. The same measure, in the same setting: the same measure for B14: “binds”.

Regarding B15, the binding entry is recorded as “binds”.

B16: the binding entry is reported as “binds”.

For B17, the binding result is reported as “binds”.

With B18, the binding result is “binds”. The same measure, in the same setting: in the case of B19 it was “binds”; in that of B20, “binds”; in that of B21, “binds”. On the same count and under the same terms, in the case of B22 it was “binds”; in that of B23, “binds”. Still for that read-out and setting: the same measure for B24: “binds”; for B25: “binds”. Consider B26, for which the binding result is listed as “binds”. Still for that read-out and setting: the same measure for B27: “binds”.

A further assay deals with HMGB1 (UniProt P09429). Nature of the assay: phage ELISA.
In the case of B28, the binding result is listed as “binds”. Same read-out and setting: in the case of B29 it was “binds”. Still for that read-out and setting: in the case of B30 it was “binds”; in that of B31, “binds”. The same measure, in the same setting: in the case of B32 it was “binds”; in that of B33, “binds”; in that of B34, “binds”. Take B35: the binding entry was “binds”. Same read-out and setting: in the case of B36 it was “binds”; in that of B37, “binds”.

B38: the binding result is given as “binds”.

For B39, the binding result was “binds”.

In a further assay the target is T1, TNF-α. Nature of the assay: phage ELISA.
Take B1: the binding result is on record as “binds”. With B2, the binding result was “binds”. Still for that read-out and setting: the same measure for B3: “binds”. On the same count and under the same terms, in the case of B4 it was “binds”; in that of B5, “binds”; in that of B6, “binds”.
